Record: PubChem BioAssay AID1224826 (NIAID, 2016)
This is an unselected part of about 17,000 deposited reagents. About 1,110 of them (6.6%) count as active. 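Active means lowered or raised reporter signal; replicate intensities are raw and not normalised per plate.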 The numbers tell different reagents against one gene apart. A reagent listed more than once was tested more than once; the source does not tell the runs apart. Further read-outs or replicates are left out here.

Purpose: 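Regulators of Tlr4 signalling leading to Tnf-alpha expression in macrophages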 (primary screen)
Cells: RAW264.7 G9 macrophages from mouse bearing reporters for p65 (GFP) and the Tnf promoter (mCherry)
Knock-down reagent: siRNA pool against mouse genes, 100 nM
Timing: 16 h of LPS stimulation, after 2 days of siRNA transfection
Challenge: bacterial lipopolysaccharide (Salmonella minnesota R595), 10 ng/ml
Measured: 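Nuclear mCherry signal of the Tnf promoter reporter measured by imaging after background removal, scaled to each plate median and turned into robust z-scores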
Direction: Tnf reporter robust z-score: higher = stronger Tnf promoter reporter signal after LPS
Rule for the call: 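a well counts as active at a score of -1.3 or below (Tlr4 knock-down control median) or above 3 (raised signal); controls and wells holding fewer than 50 cells are excluded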
Meaning of the calls: active = Tnf reporter clearly lowered or raised; inactive = no clear change in Tnf reporter

target gene | pool no. | Tnf reporter robust z-score | fewer than 50 cells in well | call
E130006D01Rik (RIKEN cDNA E130006D01 gene) | 1 | 4.31 | enough cells in well | active
Sem1 (SEM1, 26S proteasome complex subunit) | 1 | 1.31 | enough cells in well | inactive
Cep164 (centrosomal protein 164) | 1 | -0.73 | enough cells in well | inactive
Cep164 (centrosomal protein 164) | 2 | -0.2 | enough cells in well | inactive
Cox15 (cytochrome c oxidase assembly protein 15) | 1 | 0 | enough cells in well | inactive
Or2m13 (olfactory receptor family 2 subfamily M member 13) | 1 | 2.4 | enough cells in well | inactive
Atf6b (activating transcription factor 6 beta) | 1 | 0.1 | enough cells in well | inactive
Rhoa (ras homolog family member A) | 1 | 1.86 | enough cells in well | inactive
Tardbp (TAR DNA binding protein) | 1 | -1.6 | enough cells in well | active
Rbbp6 (retinoblastoma binding protein 6, ubiquitin ligase) | 1 | -1.26 | enough cells in well | inactive
Tnni1 (troponin I, skeletal, slow 1) | 1 | 0.65 | enough cells in well | inactive
Armc2 (armadillo repeat containing 2) | 1 | – | fewer than 50 cells per well; well left out of calls | inactive
Rabepk (Rab9 effector protein with kelch motifs) | 1 | 1.88 | enough cells in well | inactive
Grk5 (G protein-coupled receptor kinase 5) | 1 | -1.27 | enough cells in well | inactive
Grk5 (G protein-coupled receptor kinase 5) | 1 | -1.46 | enough cells in well | active
Psmd10 (proteasome (prosome, macropain) 26S subunit, non-ATPase, 10) | 1 | 0.1 | enough cells in well | inactive
Coro1b (coronin, actin binding protein 1B) | 1 | -0.25 | enough cells in well | inactive
Slc3a1 | 1 | -0.85 | enough cells in well | inactive
Svs6 (seminal vesicle secretory protein 6) | 1 | – | fewer than 50 cells per well; well left out of calls | inactive
Myo15a (myosin XVA) | 1 | -0.1 | enough cells in well | inactive
Slc8a1 | 1 | 0.17 | enough cells in well | inactive
Slc8a1 | 2 | 0.06 | enough cells in well | inactive
Slc30a4 | 1 | – | fewer than 50 cells per well; well left out of calls | inactive
Ets2 (Ets proto-oncogene 2, transcription factor) | 1 | -0.27 | enough cells in well | inactive
Tagln (transgelin) | 1 | -0.66 | enough cells in well | inactive

Records listed so far whose target name begins with G or g (2):
target gene | pool no. | Tnf reporter robust z-score | fewer than 50 cells in well | call
Grk5 (G protein-coupled receptor kinase 5) | 1 | -1.27 | enough cells in well | inactive
Grk5 (G protein-coupled receptor kinase 5) | 1 | -1.46 | enough cells in well | active

Next records:
target gene | pool no. | Tnf reporter robust z-score | fewer than 50 cells in well | call
Plpbp (pyridoxal phosphate binding protein) | 1 | 1.85 | enough cells in well | inactive
Ggps1 (geranylgeranyl diphosphate synthase 1) | 1 | 0.32 | enough cells in well | inactive
Tmem50a (transmembrane protein 50A) | 1 | – | fewer than 50 cells per well; well left out of calls | inactive
Serpina1a (serine (or cysteine) peptidase inhibitor, clade A, member 1A) | 1 | -0.35 | enough cells in well | inactive
Atr (ataxia telangiectasia and Rad3 related) | 1 | – | fewer than 50 cells per well; well left out of calls | inactive
Or10q12 (olfactory receptor family 10 subfamily Q member 12) | 1 | 2.95 | enough cells in well | inactive
Pomgnt1 | 1 | -0.75 | enough cells in well | inactive
Wwox (WW domain-containing oxidoreductase) | 1 | -0.74 | enough cells in well | inactive
Ptk2b (PTK2 protein tyrosine kinase 2 beta) | 1 | -0.32 | enough cells in well | inactive
Adamts8 (ADAM metallopeptidase with thrombospondin type 1 motif 8) | 1 | 2.18 | enough cells in well | inactive
Defb10 (defensin beta 10) | 1 | -0.43 | enough cells in well | inactive
Il18 (interleukin 18) | 1 | 0.26 | enough cells in well | inactive
Zfp110 (zinc finger protein 110) | 1 | -1.44 | enough cells in well | active
Spa17 (sperm autoantigenic protein 17) | 1 | -0.88 | enough cells in well | inactive
Slc19a2 | 1 | 0.17 | enough cells in well | inactive
Phlda1 (pleckstrin homology like domain, family A, member 1) | 1 | – | fewer than 50 cells per well; well left out of calls | inactive
A430057M04Rik (RIKEN cDNA A430057M04 gene) | 1 | -1.01 | enough cells in well | inactive
Cacnb3 (calcium channel, voltage-dependent, beta 3 subunit) | 1 | -0.2 | enough cells in well | inactive
Anks1b (ankyrin repeat and sterile alpha motif domain containing 1B) | 1 | 0.1 | enough cells in well | inactive
Wdpcp (WD repeat containing planar cell polarity effector) | 1 | -0.51 | enough cells in well | inactive
Ms4a6c (membrane-spanning 4-domains, subfamily A, member 6C) | 1 | 0.99 | enough cells in well | inactive
Tuba3a (tubulin, alpha 3A) | 1 | -0.37 | enough cells in well | inactive
Ccdc157 (coiled-coil domain containing 157) | 1 | 1.78 | enough cells in well | inactive
Strip2 (striatin interacting protein 2) | 1 | -0.86 | enough cells in well | inactive
Apbb2 (amyloid beta precursor protein binding family B member 2) | 1 | 1.65 | enough cells in well | inactive
Bet1 (Bet1 golgi vesicular membrane trafficking protein) | 1 | 1.13 | enough cells in well | inactive
Tnfrsf1b (tumor necrosis factor receptor superfamily, member 1b) | 1 | -1.19 | enough cells in well | inactive
Col11a1 (collagen, type XI, alpha 1) | 1 | 0.6 | enough cells in well | inactive
Or10j2 (olfactory receptor family 10 subfamily J member 2) | 1 | 1.45 | enough cells in well | inactive
Or5p70 (olfactory receptor family 5 subfamily P member 70) | 1 | – | fewer than 50 cells per well; well left out of calls | inactive
Nit2 (nitrilase family, member 2) | 1 | -0.18 | enough cells in well | inactive
Vamp8 (vesicle-associated membrane protein 8) | 1 | 0.07 | enough cells in well | inactive
Rnf11 (ring finger protein 11) | 1 | – | fewer than 50 cells per well; well left out of calls | inactive
